According to patent US20170016886A1, “INDUCED PLURIPOTENT STEM CELL MODEL OF NOONAN SYNDROME AND USE THEREOF” (KOREA ADVANCED INSTITUTE OF SCIENCE AND TECHNOLOGY, priority 2014, published 2017):
At least one compound was matched to its structure with a doubt left.

What was measured:
[1] = tested on: neural rosettes chemically differentiated from NS-iPSCs; assay: mRNA expression of ectoderm, neural rosette and neural marker genes in neural rosettes chemically differentiated from NS-iPSCs (RT-PCR, q-PCR); format: cell-based, human; details: stepwise treatment with both dorsomorphin (5 μM) and SB431542 (10 μM) together, versus normal control (H9, CRL12)
Method: To investigate whether or not the neural marker genes were normally expressed in the neural rosettes chemically differentiated from NS-iPSCs, the mRNA expression levels of the ectoderm genes PAX6, ZIC1, NESTIN, and VIMENTIN, and the NR genes PLZF, NR2F1, HES5, and DACH1, and the neural genes TUJ1, ASCL1, and NF1 were measured in the chemically differentiated NS-EBs. Particularly, the neural rosettes chemically differentiated from NS-iPSCs by the same manner as described in Example <6-1> were prepared. […] The expressions of those genes were observed by RT-PCR at mRNA level. As for the normal control, the neural rosettes chemically differentiated from H9 cell line and CRL12 in Example <6-1> were used. […] The expression of NR2F1 gene was measured by q-PCR at mRNA level. As the control group for the normalization of the expression level, GAPDH gene was used so that the expression was also measured. ΔCt value of each gene was calculated by the difference between Ct value of GAPDH and Ct value of NR2F1 gene. As for the control, the human normal embryonic stem cell line H9 and the human normal fibroblast-derived iPSCs (CRL12) were induced into neural rosettes via chemical treatments as described in Example <6-1>. The expressions of those neural rosettes were compared with the gene expression of NS-NR. The results are presented by the fold change calculated by the mathematical formula 1 above.

[2] = tested on: NS-iPSCs (Noonan syndrome patient-derived induced pluripotent stem cells); assay: Chemically directed differentiation of NS-iPSCs into embryoid bodies and neural rosettes, cell morphology; format: cell-based, human; details: stepwise treatment with both dorsomorphin (5 μM) and SB431542 (10 μM) together; NS-iPSC #4 and #5; compared with natural differentiation and normal control (H9, CRL12)
Description: Due to the abnormality in the signal transduction system in Noonan syndrome, EBs and neural rosettes naturally differentiated from NS-iPSCs were abnormally developed. To overcome this problem, the present inventors induced chemically directed differentiation of EBs and neural rosettes from NS-iPSCs by using dorsomorphin (DM) and SB431542 according to the schematic diagram of FIG. 18 (FIG. 18 and Table 6). Particularly, the colonies of NS-iPSC #4 and NS-iPSC #5 induced by the same manner as described in Example <2-1> were quartered by using 1 ml insulin syringe. The quartered NS-iPSCs were loaded on ultra-low attachment dish (SPL life sciences Co., Ltd, Korea), which were resuspended in 4 ml of embryoid body differentiation media which was the DMEM/F12 (Invitrogen, USA) containing 10% serum replacement (SR; GIBCO, USA). The resuspended NS-iPSCs were cultured for 4 days to induce the differentiation into NS-EBs. Then, the differentiated NS-EBs were obtained and cultured for 4˜5 days on the matrigel (1:50, BD biosciences, USA) coated dish in the neural rosette media which consists of DMEM/F12 supplemented with N2, B27 and […] of bFGF (FGF2, R&D systems, USA). The generated Noonan syndrome-derived neural rosettes were mechanically selected and placed on the fibronectin (BD biosciences, USA) coated dish, followed by culture in the neural rosette media for 4˜5 days. […]

c1cc(-c2cnn3cc(-c4ccc(OCCN5CCCCC5)cc4)cnc23)ccn1 [dorsomorphin]
expression of NR2F1 ([1]; mRNA level in NS neural rosettes): decreased | expressions of ectoderm, neural rosette, and neural marker genes ([1]; mRNA level): adjusted to the nearly normal level | cell morphology of the chemically differentiated EBs and neural rosettes [2]: recovered to a normal shape
